Data reported in patent US20040081647A1.
No constants are given. Whether binding was seen depends on the method and setting. Some binding calls cover weakened binding; strength is not graded here. Sequences can lack the tags named with a protein.

Chains of the proteins cited; added tags and fusions are not shown. Residues count along the entry.
UniProt P01375, residues 77-233: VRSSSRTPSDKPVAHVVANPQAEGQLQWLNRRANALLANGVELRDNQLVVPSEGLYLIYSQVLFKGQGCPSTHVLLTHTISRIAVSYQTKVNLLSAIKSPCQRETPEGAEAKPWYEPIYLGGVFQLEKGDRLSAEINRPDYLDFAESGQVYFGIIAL

Biological target: human TNFα fusion protein with an N-terminal S-Tag (human) (UniProt P01375)
Test: indirect ELISA: sp55 captured on Ni-NTA wells, S-TNF detected with S-protein-HRP

B1: sp55 address domain (human TNFR-1 ecto-domain residues 30-211) with C-terminal myc and His6 tags (receptor)
chain: DAAQPARRAVRSLVPHLGDREKRDSVCPQGKYIHPQNNSICCTKCHKGTYLYNDCPGPGQDTDCRECESGSFTASENHLRHCLSCSKCRKEMGQVEISSCTVDRDTVCGCRKNQYRHYWSENLFQCFNCSLCLNGTVHLSCQEKQNTVCTCHAGFFLRENECVSCSNCKKSLECTKLCLPQIENVKGTEDSGTTRGGPEQKLISEEDLNSAVDHHHHHH
binding: binds
